PMC3121800
These are yes or no findings as the source states them, for the method shown. In cells and extracts the contact can be indirect. These calls come from enrichment with a bait or labelling near it, and not all partners need be listed. Sequences can lack the tags named with a protein.

Target: T1, 3xFLAG-CERT (human (by the printed RefSeq NM_031361.2; the paper says only 'mammalian genes')) (UniProt Q9Y5P4)
T1 sequence: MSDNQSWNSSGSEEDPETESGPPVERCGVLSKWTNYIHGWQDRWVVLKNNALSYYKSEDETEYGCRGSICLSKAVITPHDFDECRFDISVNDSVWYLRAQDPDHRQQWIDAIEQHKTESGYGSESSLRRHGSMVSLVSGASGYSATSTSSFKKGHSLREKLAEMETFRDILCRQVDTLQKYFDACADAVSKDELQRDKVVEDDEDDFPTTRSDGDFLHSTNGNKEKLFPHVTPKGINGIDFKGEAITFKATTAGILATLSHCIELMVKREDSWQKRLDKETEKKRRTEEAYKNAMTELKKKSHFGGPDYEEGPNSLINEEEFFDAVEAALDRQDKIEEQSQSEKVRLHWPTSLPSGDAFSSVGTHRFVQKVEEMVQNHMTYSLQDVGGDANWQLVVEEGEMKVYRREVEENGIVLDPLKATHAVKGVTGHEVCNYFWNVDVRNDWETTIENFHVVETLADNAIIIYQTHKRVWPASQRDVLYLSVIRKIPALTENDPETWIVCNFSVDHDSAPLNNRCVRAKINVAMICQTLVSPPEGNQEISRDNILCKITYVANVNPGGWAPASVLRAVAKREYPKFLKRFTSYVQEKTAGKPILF
Assay: affinity purification with mass spectrometry; lysates of HEK293 transfected with 3xFLAG-CERT (18 h) and infected with C. trachomatis (24 h); anti-FLAG M2 agarose beads; SDS-PAGE, silver stain; a ~15 kDa band present only in transfected/infected samples analysed by LC MS-MS

B1: C. trachomatis inclusion membrane protein IncD (from infecting bacteria) (protein, UniProt B0B9M3 1-146)
chain: MTKVYAHSIQQERVVDRIALLERCLDLSNSLPTAKRLAAVAVATILAIALLVVAGLLFSGVLCSPVSVVAASLFFGVGAFLLGGALVGGVLTTEAVTRERLHRSQTLMWNNLCCKTAEVEQKISTASANAKSNDKLENSVSKKGAS
In the case of B1, the binding is reported as “binds”.
